Reference: PubChem BioAssay AID2685 (National Center for Advancing Translational Sciences (NCATS), 2010)
The other results are listed elsewhere or left out. Shown are side measurements of this screen, not its main read-out; they come without a call. Compounds called inactive in the main read-out are mostly missing here. The note in brackets gives the kind of curve behind each potency; many fits are weak.

Assay: qHTS Assay for Lipid Storage Modulators in Drosophila S3 Cells;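 on cell number change: cells counted by Cell Tracker Red CMTPX staining in the red channel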
Details: BODIPY lipid droplet fluorescence, 18-24 h; for cell number change: measured here: cell count max response, cells fed with added oleic acid
Outline: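 Laser-scanning cytometry quantifies lipid droplet accumulation (500–530 nm total intensity; droplet/cell object ratio) in oleic acid-fed (400 uM added) Drosophila S3 cells treated with a concentration series. 20 uM Triacsin C defined 100% inhibition.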

[1] = measured here: cell number channel AC50, cells fed with added oleic acid
[2] = measured here: lipid fluorescence (Fed channel) AC50, cells fed with added oleic acid

SMILES	AC50 [1]	cell number change [%]	AC50 [2]
Cc1cc(SCC(N)=O)nc(SCC(=O)c2ccccc2)n1	6.51 µM [rising, partial curve, poor fit]		
Cc1noc(C)c1S(=O)(=O)N(CC(=O)NC(C)c1ccccc1)c1ccc(C(C)C)cc1 (stereo unspecified)	25.9 µM [rising, single point]	31.4	6.51 µM [rising, single point]
N=C(N)SCc1cn(-c2ccccc2)nc1-c1ccc(Br)cc1		-127	
O=C(CNC(=O)c1ccco1)NCC(=O)OCc1c(F)cccc1Cl		-5.45	29.1 µM [rising, single point]
COc1cc(C)nc(N2CCCC(C(=O)Nc3cccc(Cl)c3C)C2)n1 (stereo unspecified)		-4.36	
O=C(Nc1ccccc1N1CCN(c2ccccc2)CC1)c1cccc(F)c1		28.3	18.4 µM [rising, partial curve]
CCOc1ccc(NC(=O)CSc2nnc(NC(=O)C3CC3)s2)cc1	0.731 µM [rising, full curve, poor fit]	19.6	
CCCCCc1cc(=O)oc2c(C(CCN3CCCCC3)c3ccc(OC)cc3)c(OC)cc(OC)c12 (stereo unspecified)	25.9 µM [falling, single point]	-38.5	20.6 µM [falling, single point]
Cc1nc(SCC(N)=O)c(C#N)c(C)c1C		16.7	0.58 µM [rising, full curve]
CCNS(=O)(=O)c1cc(OC)ccc1OC	6.51 µM [falling, partial curve, poor fit]	-31.8	29.1 µM [falling, single point]
O=C(CSc1nc(=O)n(CCCN2CCOCC2)c2c1CCC2)Nc1ccc(F)cc1	0.461 µM [falling, single point]		
Cc1cc(NC(=O)c2cccc(S(=O)(=O)N3CC(c4ccccc4)CC3=O)c2)no1 (stereo unspecified)	1.16 µM [rising, partial curve]		
CSc1ccccc1C(=O)Nc1ccc2c(c1)OCO2		20.8	29.1 µM [rising, single point]
COC(=O)c1ccc(=O)n(CC(=O)c2ccc(Cl)cc2)c1			0.58 µM [rising, partial curve, poor fit]
CCOC(=O)C1(CC2CCCCO2)CCN(C(=O)Nc2ccc(SC)cc2)CC1 (stereo unspecified)		-13.7	18.4 µM [falling, partial curve, poor fit]
Cc1nn(Cc2ccc(F)cc2)c(C)c1NC(=O)CCCn1nc([N+](=O)[O-])cc1C	8.2 µM [falling, partial curve]	-30.3	
O=C(Cn1nnc2ccccc2c1=O)Nc1cccc(S(=O)(=O)N2CCOCC2)c1	0.13 µM [rising, single point]		0.116 µM [rising, single point]

Gathered by group: the compounds so far containing an aryl methoxy group (3)
SMILES	AC50 [1]	cell number change [%]	AC50 [2]
COc1cc(C)nc(N2CCCC(C(=O)Nc3cccc(Cl)c3C)C2)n1 (stereo unspecified)		-4.36	
CCCCCc1cc(=O)oc2c(C(CCN3CCCCC3)c3ccc(OC)cc3)c(OC)cc(OC)c12 (stereo unspecified)	25.9 µM [falling, single point]	-38.5	20.6 µM [falling, single point]
CCNS(=O)(=O)c1cc(OC)ccc1OC	6.51 µM [falling, partial curve, poor fit]	-31.8	29.1 µM [falling, single point]
